{"source": "patent EP2992885A2", "about": "“METHOD FOR INHIBITING A LIVER DISEASE” (priority 2014, dated 2016)", "key": {"[1]": {"system": "HMG CoA reductase", "assay": "Serum/vehicle and mevalonate-induced HMG CoA reductase expression in HepG2 cells", "type": "cell-based"}, "[2]": {"system": "HSL", "assay": "HSL immunoreactivity by fluorescence staining in HepG2 cells", "type": "cell-based", "conditions": "HepG2, 24 hours"}, "[3]": {"system": "MMP-9", "assay": "IHC staining of MMP-9 in steatohepatitis liver", "type": "in vivo, mice", "conditions": "treatment and protection groups"}, "[4]": {"system": "PKA", "assay": "PKA expression (Western blotting) and immunoreactivity (fluorescence staining) in HepG2 cells", "type": "cell-based"}, "[5]": {"system": "TNF-α", "assay": "IHC staining of TNF-α in steatohepatitis liver", "type": "in vivo, mice", "conditions": "2.5 mg/kg/day for 14 weeks (protection) and 6 weeks (treatment)"}, "[6]": {"system": "PPARγ", "assay": "PPARγ expression in liver of HFD mice, 8 weeks", "type": "in vivo", "conditions": "animals treated with HFD"}, "[7]": {"system": "ABCA1", "assay": "ABCA1 expression in liver of HFD mice, 8 weeks", "type": "in vivo", "conditions": "animals treated with HFD"}, "[8]": {"system": "ROCK II", "assay": "ROCK II expression in HepG2 cells", "type": "cell-based", "description": "HepG2 cells were treated with various concentrations of drugs for 24 hours. Reactions were terminated by washing twice with cold PBS, and the cells were then harvested. Proteins in the whole-cell lysate were homogenized in an ice-cold lysis buffer and a protease inhibitor (Sigma-Aldrich, St. Louis, MO, U.S.A.). The homogenate was centrifuged at 90, 000 g for 15 minutes at 4°C, and supernatant was recovered as the total cellular protein. Cytosolic and membrane fractions of HepG2 cells were prepared using a CNM (Cytosol Nuclear Membrane) compartment protein extraction kit (BioChain Institute Inc., Hayward, CA, U.S.A.) according to the manufacturer's instructions. All of the fractionated protein solutions were stored at -80°C until analysis. To measure the expression levels of proteins by drugs, the total cell protein was extracted after incubation with treatments for 24 hours and then Western blotting analysis was performed as described previously.\nTo confirm that RhoA antagonist C3 exoenzyme (5 µg/ml) and ROCK antagonist Y27632 (10 µM), dissolved in 10% popyleneglycol, can inactivate_the expression of ROCK II, they were added to cells in culture for 24 hours, respectively, to measure the expression of ROCK II and related expressions of PPARγ and ABCA-1 in HepG2 cells."}, "[9]": {"system": "ABCA1", "assay": "Western blotting of ABCA1 expression in HepG2 cells", "type": "cell-based", "conditions": "FPP or GGPP 10 µM, drug 10^-9-10^-5 M"}, "[10]": {"system": "PPARγ", "assay": "Western blotting of PPARγ expression in HepG2 cells", "type": "cell-based", "conditions": "FPP or GGPP 10 µM, drug 10^-9-10^-5 M"}, "[11]": {"biological_target": "T1, Human recombinant HMG CoA reductase (Homo sapiens, UniProt P04035)", "T1 construct": "purchased Sigma-Adrich (so in the source) H7039; host or cells: E. coli", "T1 sequence (P04035 426-888 limits assumed)": "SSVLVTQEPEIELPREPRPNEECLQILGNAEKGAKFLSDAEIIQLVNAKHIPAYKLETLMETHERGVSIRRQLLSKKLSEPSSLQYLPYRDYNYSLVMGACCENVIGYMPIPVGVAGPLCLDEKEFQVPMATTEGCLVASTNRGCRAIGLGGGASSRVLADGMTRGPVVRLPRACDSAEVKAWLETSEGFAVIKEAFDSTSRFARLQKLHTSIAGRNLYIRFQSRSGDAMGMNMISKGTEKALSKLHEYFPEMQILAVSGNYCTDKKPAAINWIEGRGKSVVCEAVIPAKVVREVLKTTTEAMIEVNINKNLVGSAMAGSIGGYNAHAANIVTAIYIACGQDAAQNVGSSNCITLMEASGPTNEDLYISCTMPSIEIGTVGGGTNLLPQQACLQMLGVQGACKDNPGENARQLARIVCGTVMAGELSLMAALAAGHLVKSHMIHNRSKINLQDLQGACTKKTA", "assay": "HMG CoA reductase activity, [^14C]mevalonate formation", "type": "biochemical", "conditions": "10 µM"}}, "note": "At least one compound was matched to its structure with a doubt left.", "data": [{"compound": "CC(O)(CCO)CC(=O)O", "note": "(stereo not drawn) [mevalonate]", "values": [{"measurement": "expression of HMG CoA reductase", "setting": "[1]; mevalonate 60, 80, 100 µM", "result": "concentration-dependently reduced"}, {"measurement": "HMG CoA reductase expression", "setting": "[1]; mevalonate at 100 µM", "result": "sharply inhibited"}]}, {"compound": "Cn1c(=O)c2c(ncn2CCN2CCN(c3ccccc3Cl)CC2)n(C)c1=O", "note": "[KMUP-1, 7-[2-[4-(2-chlorophenyl)piperazinyl]ethyl]-1,3-dimethyl xanthine]", "values": [{"measurement": "effect on mevalonate (100 µM) inhibition of HMG CoA reductase expression", "setting": "[1]; 10^-5M", "result": "prevented"}, {"measurement": "HSL immunoreactivity (green fluorescence)", "setting": "[2]", "result": "increased immunoreactivities"}, {"measurement": "anti-body response to MMP-9 (IHC, liver)", "setting": "[3]", "result": "shaded by the treatment and almost disappeared in the protection group"}, {"measurement": "PKA immunoreactivity (green fluorescence)", "setting": "[4]; HepG2, 24 hours", "result": "increased immunoreactivities"}, {"measurement": "oxLDL-induced reduction of PKA expression", "setting": "[4]; HepG2, 200 µg/mL oxLDL, KMUP-1 1, 10, 100 µM", "result": "reversed"}, {"measurement": "TNF-α immunohistochemistry (IHC) on fatty liver slices", "setting": "[5]", "result": "inhibited partial"}, {"measurement": "PPARγ in liver (Fig. 20)", "setting": "[6]", "result": "activated"}, {"measurement": "ABCA1 in liver (Fig. 21)", "setting": "[7]", "result": "activated"}, {"measurement": "RhoA/ROCK II expression in the presence of exogenous GGPP and FPP", "setting": "[8]; 10^-9-10^-5 M", "result": "attenuated"}, {"measurement": "Rp-8-pCPT-cGMPS-increased ROCK II expression (Fig. 24B)", "setting": "[8]; KMUP-1 10 µM combined with Rp-8-pCPT-cGMPS 10µM, 24 hours", "result": "inhibited"}, {"measurement": "expression of ABCA1 in the presence of FPP or GGPP", "setting": "[9]", "result": "reversed"}, {"measurement": "expression of PPARγ in the presence of FPP or GGPP", "setting": "[10]", "result": "reversed"}, {"measurement": "[^14C]mevalonate formation", "setting": "[11]", "result": "could not reduce"}]}]}
